Laboratory results published in patent publication US10220096B2, “Injectable and stable hydrogels with dynamic properties modulated by biocompatible catalysts” (The Board of Trustees of the Leland Stanford Junior …, priority 2016, dated 2019).

Test: Kinetic measurements on hydrazone exchange (model reaction, HPLC)
Conditions: calculated from rate constants
Procedure: 2-(aminomethyl)benzimidazole (1 in FIG. 2) is an efficient catalyst to accelerate hydrazone formation owing to facilitated intramolecular proton transfer in the transition state. The rates for hydrazone formation (k1) and cleavage (k−1) in the presence of 1 were measured using model reactions between hydrazine and aldehyde and modeled for a reversible second-order reaction (FIG. 8), and the equilibrium constant (Keq) was calculated from these rate constants. […] The gelation time of the HA-hydrazone hydrogels was dramatically shortened in the presence of 1. […] In the presence of about 25 mM of 1, gelation occurred in less than about 60 s and reached a final plateau shear modulus of about 800 Pa in about 5 min (FIG. 3b). Increasing the catalyst loading to about 100 mM further shortened the time to reach equilibrium to about 3 min (FIG. 3b). […] The rate of stress relaxation under constant strain was quantified by the time for the initially measured stress to relax to half of its original value, τ1/2. […] Accelerated hydrazone exchange by an incorporated catalyst also allowed these hydrogels to be readily remolded macroscopically (FIG. 9), facilitating their injection and re-processing. […]
The equilibrium constant (Keq) and rate constants for hydrazone formation (k1) and cleavage (k−1) between aldehyde S1 and hydrazine S3 as model compounds with different concentrations of catalyst 1 were measured by HPLC. […]
For the reactions performed in the absence of catalyst, about 10 μL of hydrazine and about 10 μL of aldehyde stock solutions were added to about 980 μL PBS buffer (1×, pH of about 7.4). […] The reactions were performed at about 37° C. in a water bath and followed using HPLC with detection at about 420 nm absorption (HPLC conditions: XBridge 10 μm C18 column; about 40% acetonitrile in PBS buffer (pH of about 7) isocratic elution in about 7 min at a flow rate of about 0.34 mL/min. The concentrations and conversions were calculated from the integrals of the HPLC signals. The kinetic data of hydrazone formation were fitted to a kinetic model for 2nd order reactions using Matlab (FIG. 8). […]

## NCc1nc2ccccc2[nH]1 [catalyst 1, 2-(aminomethyl)benzimidazole]
25 mM of 1
  Keq, equilibrium constant of hydrazone formation: 124000 M⁻¹
50 mM of 1
  Keq, equilibrium constant of hydrazone formation: 123000 M⁻¹
100 mM of 1
  Keq, equilibrium constant of hydrazone formation: 124000 M⁻¹
